Measured values taken from paper PMC12561918.

Chains of the proteins cited; added tags and fusions are not shown. Lines headed by an entry give the natural chain unless they say otherwise; changes in a name come on top. Residues count along the entry.
UniProt I6Y4D2, residues 25-241: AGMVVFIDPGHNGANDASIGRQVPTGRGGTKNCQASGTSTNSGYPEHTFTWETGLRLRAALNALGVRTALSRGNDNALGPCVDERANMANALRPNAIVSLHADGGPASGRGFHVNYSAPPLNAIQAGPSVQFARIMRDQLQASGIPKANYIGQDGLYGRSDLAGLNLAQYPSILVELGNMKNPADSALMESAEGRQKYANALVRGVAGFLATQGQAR
UniProt Q08554: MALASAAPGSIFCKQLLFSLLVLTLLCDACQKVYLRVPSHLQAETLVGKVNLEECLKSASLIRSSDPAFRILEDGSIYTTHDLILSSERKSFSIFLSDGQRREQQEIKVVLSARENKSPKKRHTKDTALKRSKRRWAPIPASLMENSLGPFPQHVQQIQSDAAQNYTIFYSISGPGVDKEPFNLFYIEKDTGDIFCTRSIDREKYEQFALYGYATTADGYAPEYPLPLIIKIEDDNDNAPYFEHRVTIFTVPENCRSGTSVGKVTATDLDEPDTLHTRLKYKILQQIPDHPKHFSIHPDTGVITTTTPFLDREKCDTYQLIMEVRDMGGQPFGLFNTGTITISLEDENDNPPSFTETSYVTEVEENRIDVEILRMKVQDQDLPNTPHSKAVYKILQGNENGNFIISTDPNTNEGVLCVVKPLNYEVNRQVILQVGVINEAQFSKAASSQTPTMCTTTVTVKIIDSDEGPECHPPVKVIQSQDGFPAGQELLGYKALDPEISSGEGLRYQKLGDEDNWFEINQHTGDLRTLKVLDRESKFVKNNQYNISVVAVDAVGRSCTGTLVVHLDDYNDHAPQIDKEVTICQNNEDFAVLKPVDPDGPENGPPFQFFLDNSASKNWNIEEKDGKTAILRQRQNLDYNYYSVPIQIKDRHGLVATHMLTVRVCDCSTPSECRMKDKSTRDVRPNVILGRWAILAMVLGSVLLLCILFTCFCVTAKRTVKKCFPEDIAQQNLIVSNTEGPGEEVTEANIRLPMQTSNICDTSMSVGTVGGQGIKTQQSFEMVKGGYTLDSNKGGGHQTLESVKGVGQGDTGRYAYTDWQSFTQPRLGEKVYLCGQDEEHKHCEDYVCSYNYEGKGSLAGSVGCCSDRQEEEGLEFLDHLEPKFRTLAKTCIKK
UniProt P19474: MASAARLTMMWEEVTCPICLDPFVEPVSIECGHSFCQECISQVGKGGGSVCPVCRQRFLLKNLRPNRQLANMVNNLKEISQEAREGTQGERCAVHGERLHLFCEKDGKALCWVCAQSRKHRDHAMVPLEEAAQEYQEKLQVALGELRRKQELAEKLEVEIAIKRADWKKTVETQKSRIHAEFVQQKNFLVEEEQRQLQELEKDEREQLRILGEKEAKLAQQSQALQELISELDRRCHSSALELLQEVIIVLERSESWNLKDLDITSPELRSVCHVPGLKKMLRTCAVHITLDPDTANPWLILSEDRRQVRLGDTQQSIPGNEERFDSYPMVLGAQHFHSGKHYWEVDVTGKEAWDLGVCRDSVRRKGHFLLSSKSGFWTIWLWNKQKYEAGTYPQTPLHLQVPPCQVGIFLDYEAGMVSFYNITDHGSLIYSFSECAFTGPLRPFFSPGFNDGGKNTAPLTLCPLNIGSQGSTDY
UniProt Q12905: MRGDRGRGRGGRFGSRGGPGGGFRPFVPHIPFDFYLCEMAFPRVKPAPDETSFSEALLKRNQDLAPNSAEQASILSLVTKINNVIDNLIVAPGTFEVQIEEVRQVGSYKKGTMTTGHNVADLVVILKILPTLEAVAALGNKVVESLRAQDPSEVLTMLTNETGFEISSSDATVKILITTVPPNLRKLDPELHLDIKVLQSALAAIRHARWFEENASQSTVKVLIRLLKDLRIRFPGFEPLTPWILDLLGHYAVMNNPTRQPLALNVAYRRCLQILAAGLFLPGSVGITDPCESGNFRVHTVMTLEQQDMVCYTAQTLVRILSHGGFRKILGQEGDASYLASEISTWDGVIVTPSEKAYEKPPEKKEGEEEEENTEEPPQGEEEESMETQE
UniProt P17844: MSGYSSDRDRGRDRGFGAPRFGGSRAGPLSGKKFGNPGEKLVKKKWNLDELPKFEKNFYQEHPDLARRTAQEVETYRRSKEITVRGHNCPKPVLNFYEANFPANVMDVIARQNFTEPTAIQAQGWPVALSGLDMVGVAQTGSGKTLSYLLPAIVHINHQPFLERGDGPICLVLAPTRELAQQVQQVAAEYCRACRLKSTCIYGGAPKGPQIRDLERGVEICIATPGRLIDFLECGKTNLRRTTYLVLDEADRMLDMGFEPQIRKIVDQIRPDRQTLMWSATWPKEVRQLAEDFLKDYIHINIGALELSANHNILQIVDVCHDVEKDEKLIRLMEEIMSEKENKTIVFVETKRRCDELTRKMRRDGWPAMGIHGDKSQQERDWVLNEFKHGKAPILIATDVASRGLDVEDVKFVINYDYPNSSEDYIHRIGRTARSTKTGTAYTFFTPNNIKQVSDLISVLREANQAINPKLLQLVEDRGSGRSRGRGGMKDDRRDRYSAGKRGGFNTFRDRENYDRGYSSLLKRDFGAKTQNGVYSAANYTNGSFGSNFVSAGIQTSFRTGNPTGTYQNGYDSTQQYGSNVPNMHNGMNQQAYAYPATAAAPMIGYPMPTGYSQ
UniProt P26599: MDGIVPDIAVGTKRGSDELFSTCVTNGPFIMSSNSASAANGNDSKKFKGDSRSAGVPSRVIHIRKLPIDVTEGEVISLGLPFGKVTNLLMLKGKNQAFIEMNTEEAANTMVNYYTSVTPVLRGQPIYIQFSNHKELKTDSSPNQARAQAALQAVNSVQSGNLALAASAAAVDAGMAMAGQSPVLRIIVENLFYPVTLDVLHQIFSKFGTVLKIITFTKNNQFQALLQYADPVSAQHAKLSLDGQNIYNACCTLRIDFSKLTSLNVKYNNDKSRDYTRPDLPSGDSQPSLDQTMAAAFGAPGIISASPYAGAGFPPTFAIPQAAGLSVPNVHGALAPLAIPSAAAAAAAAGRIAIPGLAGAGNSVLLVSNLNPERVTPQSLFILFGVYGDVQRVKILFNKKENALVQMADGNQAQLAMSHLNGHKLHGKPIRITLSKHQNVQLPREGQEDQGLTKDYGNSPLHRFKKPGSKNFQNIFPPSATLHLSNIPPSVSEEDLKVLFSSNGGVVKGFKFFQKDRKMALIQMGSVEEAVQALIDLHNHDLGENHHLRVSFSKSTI
UniProt P15924: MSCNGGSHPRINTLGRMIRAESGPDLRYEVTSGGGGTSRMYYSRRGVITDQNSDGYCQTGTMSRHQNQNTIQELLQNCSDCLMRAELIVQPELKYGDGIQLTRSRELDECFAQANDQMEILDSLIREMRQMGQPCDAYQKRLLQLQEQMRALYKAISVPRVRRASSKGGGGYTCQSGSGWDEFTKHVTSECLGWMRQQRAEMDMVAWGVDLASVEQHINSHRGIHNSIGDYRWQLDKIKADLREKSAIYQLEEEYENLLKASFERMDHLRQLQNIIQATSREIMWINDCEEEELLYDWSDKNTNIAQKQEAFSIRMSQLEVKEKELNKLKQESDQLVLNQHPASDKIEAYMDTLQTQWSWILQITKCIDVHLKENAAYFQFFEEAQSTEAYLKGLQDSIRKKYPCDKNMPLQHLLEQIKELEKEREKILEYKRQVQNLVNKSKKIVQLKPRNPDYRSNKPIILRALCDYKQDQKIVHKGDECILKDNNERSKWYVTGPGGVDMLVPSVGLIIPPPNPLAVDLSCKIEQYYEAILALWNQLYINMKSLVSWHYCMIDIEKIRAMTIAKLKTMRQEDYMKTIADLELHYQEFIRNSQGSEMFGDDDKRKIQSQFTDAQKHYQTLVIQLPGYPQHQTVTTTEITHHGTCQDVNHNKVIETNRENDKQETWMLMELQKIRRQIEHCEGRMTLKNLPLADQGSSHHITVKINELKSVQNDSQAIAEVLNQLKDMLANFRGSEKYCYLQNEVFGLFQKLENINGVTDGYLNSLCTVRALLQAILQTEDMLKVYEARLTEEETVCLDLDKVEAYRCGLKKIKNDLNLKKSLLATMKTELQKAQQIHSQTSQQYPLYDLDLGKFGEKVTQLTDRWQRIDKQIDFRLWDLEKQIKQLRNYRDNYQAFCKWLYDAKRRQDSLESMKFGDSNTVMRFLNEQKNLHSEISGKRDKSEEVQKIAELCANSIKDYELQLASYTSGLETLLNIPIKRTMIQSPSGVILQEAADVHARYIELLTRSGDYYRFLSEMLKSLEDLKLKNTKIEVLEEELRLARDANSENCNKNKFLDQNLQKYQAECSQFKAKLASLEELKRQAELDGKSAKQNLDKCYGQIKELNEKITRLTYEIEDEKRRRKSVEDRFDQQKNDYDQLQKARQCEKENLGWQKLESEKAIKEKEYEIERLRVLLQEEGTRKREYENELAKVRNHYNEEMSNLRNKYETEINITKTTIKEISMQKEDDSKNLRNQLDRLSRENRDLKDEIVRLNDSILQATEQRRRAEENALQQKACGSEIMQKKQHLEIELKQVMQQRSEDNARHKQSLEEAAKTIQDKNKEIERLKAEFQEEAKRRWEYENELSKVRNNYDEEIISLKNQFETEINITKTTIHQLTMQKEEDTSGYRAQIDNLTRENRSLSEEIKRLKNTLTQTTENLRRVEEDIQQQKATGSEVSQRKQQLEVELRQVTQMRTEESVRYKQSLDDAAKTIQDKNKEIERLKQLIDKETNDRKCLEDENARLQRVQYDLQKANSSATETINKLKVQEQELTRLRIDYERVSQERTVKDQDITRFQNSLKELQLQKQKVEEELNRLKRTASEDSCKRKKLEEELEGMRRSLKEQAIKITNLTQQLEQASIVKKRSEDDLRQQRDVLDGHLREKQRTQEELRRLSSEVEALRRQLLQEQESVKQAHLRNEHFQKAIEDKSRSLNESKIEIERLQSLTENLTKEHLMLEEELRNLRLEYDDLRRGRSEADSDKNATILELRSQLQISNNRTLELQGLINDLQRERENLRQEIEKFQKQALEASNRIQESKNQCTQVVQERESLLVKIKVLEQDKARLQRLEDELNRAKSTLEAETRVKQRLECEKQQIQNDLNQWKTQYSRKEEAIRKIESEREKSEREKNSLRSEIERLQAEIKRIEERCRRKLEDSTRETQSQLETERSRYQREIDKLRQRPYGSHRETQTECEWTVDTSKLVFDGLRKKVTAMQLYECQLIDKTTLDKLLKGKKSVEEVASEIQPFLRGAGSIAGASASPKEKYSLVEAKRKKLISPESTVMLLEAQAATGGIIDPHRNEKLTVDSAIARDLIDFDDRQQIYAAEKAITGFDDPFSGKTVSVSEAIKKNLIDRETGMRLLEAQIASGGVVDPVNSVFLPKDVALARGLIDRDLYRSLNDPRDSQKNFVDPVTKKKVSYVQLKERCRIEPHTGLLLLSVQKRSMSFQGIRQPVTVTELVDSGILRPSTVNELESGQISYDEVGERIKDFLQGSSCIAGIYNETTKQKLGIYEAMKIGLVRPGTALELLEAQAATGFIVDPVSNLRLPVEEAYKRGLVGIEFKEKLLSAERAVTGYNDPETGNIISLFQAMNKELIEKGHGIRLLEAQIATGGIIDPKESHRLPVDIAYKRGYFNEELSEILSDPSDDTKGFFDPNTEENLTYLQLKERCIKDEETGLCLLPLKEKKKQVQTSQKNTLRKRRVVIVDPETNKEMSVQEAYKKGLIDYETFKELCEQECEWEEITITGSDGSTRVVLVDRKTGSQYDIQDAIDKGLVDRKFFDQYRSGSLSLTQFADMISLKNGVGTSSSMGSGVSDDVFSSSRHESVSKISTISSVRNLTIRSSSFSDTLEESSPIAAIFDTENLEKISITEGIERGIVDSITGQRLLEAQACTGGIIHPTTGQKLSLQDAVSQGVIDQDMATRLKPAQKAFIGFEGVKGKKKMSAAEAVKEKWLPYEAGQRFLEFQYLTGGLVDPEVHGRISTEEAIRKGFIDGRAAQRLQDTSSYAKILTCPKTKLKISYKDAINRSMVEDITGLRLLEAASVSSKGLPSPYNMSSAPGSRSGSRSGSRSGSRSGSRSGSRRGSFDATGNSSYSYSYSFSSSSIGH

B1: Heterogeneous nuclear ribonucleoprotein D-like (protein, UniProt O14979 1-420)
chain: MEVPPRLSHVPPPLFPSAPATLASRSLSHWRPRPPRQLAPLLPSLAPSSARQGARRAQRHVTAQQPSRLAGGAAIKGGRRRRPDLFRRHFKSSSIQRSAAAAAATRTARQHPPADSSVTMEDMNEYSNIEEFAEGSKINASKNQQDDGKMFIGGLSWDTSKKDLTEYLSRFGEVVDCTIKTDPVTGRSRGFGFVLFKDAASVDKVLELKEHKLDGKLIDPKRAKALKGKEPPKKVFVGGLSPDTSEEQIKEYFGAFGEIENIELPMDTKTNERRGFCFITYTDEEPVKKLLESRYHQIGSGKCEIKVAQPKEVYRQQQQQQKGGRGAAAGGRGGTRGRGRGQGQNWNQGFNNYYDQGYGNYNSAYGGDQNYSGYGGYDYTGYNYGNYGYGQGYADYSGQQSTYGKASRGGGNHQNNYQPY
B2: Serrate RNA effector molecule homolog (protein, UniProt Q9BXP5 1-876)
chain: MGDSDDEYDRRRRDKFRRERSDYDRSRERDERRRGDDWNDREWDRGRERRSRGEYRDYDRNRRERFSPPRHELSPPQKRMRRDWDEHSSDPYHSGYEMPYAGGGGGPTYGPPQPWGHPDVHIMQHHVLPIQARLGSIAEIDLGVPPPVMKTFKEFLLSLDDSVDETEAVKRYNDYKLDFRRQQMQDFFLAHKDEEWFRSKYHPDEVGKRRQEARGALQNRLRVFLSLMETGWFDNLLLDIDKADAIVKMLDAAVIKMEGGTENDLRILEQEEEEEQAGKPGEPSKKEEGRAGAGLGDGERKTNDKDEKKEDGKQAENDSSNDDKTKKSEGDGDKEEKKEDSEKEAKKSSKKRNRKHSGDDSFDEGSVSESESESESGQAEEEKEEAEEALKEKEKPKEEEWEKPKDAAGLECKPRPLHKTCSLFMRNIAPNISRAEIISLCKRYPGFMRVALSEPQPERRFFRRGWVTFDRSVNIKEICWNLQNIRLRECELSPGVNRDLTRRVRNINGITQHKQIVRNDIKLAAKLIHTLDDRTQLWASEPGTPPLPTSLPSQNPILKNITDYLIEEVSAEEEELLGSSGGAPPEEPPKEGNPAEINVERDEKLIKVLDKLLLYLRIVHSLDYYNTCEYPNEDEMPNRCGIIHVRGPMPPNRISHGEVLEWQKTFEEKLTPLLSVRESLSEEEAQKMGRKDPEQEVEKFVTSNTQELGKDKWLCPLSGKKFKGPEFVRKHIFNKHAEKIEEVKKEVAFFNNFLTDAKRPALPEIKPAQPPGPAQILPPGLTPGLPYPHQTPQGLMPYGQPRPPILGYGAGAVRPAVPTGGPPYPHAPYGAGRGNYDAFRGQGGYPGKPRNRMVRGDPRAIVEYRDLDAPDDVDFF
B3: Junction plakoglobin (protein, UniProt P14923 1-745)
chain: MEVMNLMEQPIKVTEWQQTYTYDSGIHSGANTCVPSVSSKGIMEEDEACGRQYTLKKTTTYTQGVPPSQGDLEYQMSTTARAKRVREAMCPGVSGEDSSLLLATQVEGQATNLQRLAEPSQLLKSAIVHLINYQDDAELATRALPELTKLLNDEDPVVVTKAAMIVNQLSKKEASRRALMGSPQLVAAVVRTMQNTSDLDTARCTTSILHNLSHHREGLLAIFKSGGIPALVRMLSSPVESVLFYAITTLHNLLLYQEGAKMAVRLADGLQKMVPLLNKNNPKFLAITTDCLQLLAYGNQESKLIILANGGPQALVQIMRNYSYEKLLWTTSRVLKVLSVCPSNKPAIVEAGGMQALGKHLTSNSPRLVQNCLWTLRNLSDVATKQEGLESVLKILVNQLSVDDVNVLTCATGTLSNLTCNNSKNKTLVTQNSGVEALIHAILRAGDKDDITEPAVCALRHLTSRHPEAEMAQNSVRLNYGIPAIVKLLNQPNQWPLVKATIGLIRNLALCPANHAPLQEAAVIPRLVQLLVKAHQDAQRHVAAGTQQPYTDGVRMEEIVEGCTGALHILARDPMNRMEIFRLNTIPLFVQLLYSSVENIQRVAAGVLCELAQDKEAADAIDAEGASAPLMELLHSRNEGTATYAAAVLFRISEDKNPDYRKRVSVELTNSLFKHDPAAWEAAQSMIPINEPYGDDMDATYRPMYSSDVPLDPLEMHMDMDGDYPIDTYSDGLRPPYPTADHMLA
B4: Zyxin (protein, UniProt Q15942 1-572)
chain: MAAPRPSPAISVSVSAPAFYAPQKKFGPVVAPKPKVNPFRPGDSEPPPAPGAQRAQMGRVGEIPPPPPEDFPLPPPPLAGDGDDAEGALGGAFPPPPPPIEESFPPAPLEEEIFPSPPPPPEEEGGPEAPIPPPPQPREKVSSIDLEIDSLSSLLDDMTKNDPFKARVSSGYVPPPVATPFSSKSSTKPAAGGTAPLPPWKSPSSSQPLPQVPAPAQSQTQFHVQPQPQPKPQVQLHVQSQTQPVSLANTQPRGPPASSPAPAPKFSPVTPKFTPVASKFSPGAPGGSGSQPNQKLGHPEALSAGTGSPQPPSFTYAQQREKPRVQEKQHPVPPPAQNQNQVRSPGAPGPLTLKEVEELEQLTQQLMQDMEHPQRQNVAVNELCGRCHQPLARAQPAVRALGQLFHIACFTCHQCAQQLQGQQFYSLEGAPYCEGCYTDTLEKCNTCGEPITDRMLRATGKAYHPHCFTCVVCARPLEGTSFIVDQANRPHCVPDYHKQYAPRCSVCSEPIMPEPGRDETVRVVALDKNFHMKCYKCEDCGKPLSIEADDNGCFPLDGHVLCRKCHTARAQT

Biological target: Flag-Rv3717 (Mycobacterium tuberculosis Rv3717) expressed in HPAEpiC cells (Mycobacterium tuberculosis) (UniProt I6Y4D2)
Assay: affinity purification with mass spectrometry

Molecule | binding
Desmocollin-1 (from UniProt Q08554) | binds
E3 ubiquitin ligase TRIM21 (endogenous) (from UniProt P19474 1-475) | binds
Interleukin enhancer-binding factor 2 (endogenous) (from UniProt Q12905 1-390) | binds
Probable ATP-dependent RNA helicase DDX5 (from UniProt P17844 1-614) | binds
Polypyrimidine tract-binding protein 1 (from UniProt P26599 1-557) | binds
Desmoplakin (from UniProt P15924 1-2871) | binds
B1 | binds
B2 | binds
B3 | binds
B4 | binds

No constants are given. Whether binding was seen depends on the method and setting. Binding seen in cells or lysates may run through a third protein. A yes stands for co-enrichment or nearness to the bait. Other partners may have been found.
